PubChem BioAssay AID1508588 – Peter MacCallum Cancer Centre, 2020
Purpose: 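Knock-downs boosting vemurafenib effects on melanoma cell growth or lactate release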 (primary screen). Cell system: human WM266.4 melanoma cells (BRAF V600 mutant). Knock-down reagent: siRNA pool against human genes, 40 nM. Timing: 96 h from transfection to read-out. Treatment: vemurafenib 300 nM (about IC25), added 48 h after transfection, for 48 h; comparison arm got DMSO vehicle only. Measurement: 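Cell gain (DAPI nuclei at end minus before drug, mean of two replicates) and medium lactate by absorbance per cell, both as ratio to non-targeting siRNA, also grouped into fold-change classes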. Scale: cell gain with vemurafenib: higher = more cell gain than with non-targeting siRNA; lactate per cell with vemurafenib: higher = more lactate made per cell. Call rule: 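Enhancement is called by pairing each knock-down's vehicle-arm and drug-arm fold-change classes for viability or glycolysis; which class combinations qualify is not given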. Meaning of the calls: active = enhances vemurafenib effect; inactive = no enhancement seen.
In all, the deposit lists about 18,000 reagents; this is an unselected part. 790 of them (4.4%) were called active. 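Calls rest on a combination of fold-change classes in drug and vehicle arms, not all shown here.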 The numbers tell different reagents against one gene apart.

The opening 5 entries, ahead of the listing:
| Target gene | reagent no. | cell gain with vemurafenib | lactate per cell with vemurafenib | call |
| --- | --- | --- | --- | --- |
| CALML6 | 1 | 0.67 | 0.99 | inactive |
| CNBP | 1 | 0.61 | 1.32 | inactive |
| CCRL2 | 1 | 0.5 | 1.6 | inactive |
| ZFP37 | 1 | 0.55 | 0.68 | inactive |
| RD3 | 1 | 0.32 | 1.52 | inactive |

The list itself, repeating the preview:
| Target gene | reagent no. | cell gain with vemurafenib | lactate per cell with vemurafenib | call |
| --- | --- | --- | --- | --- |
| CALML6 | 1 | 0.67 | 0.99 | inactive |
| CNBP | 1 | 0.61 | 1.32 | inactive |
| CCRL2 | 1 | 0.5 | 1.6 | inactive |
| ZFP37 | 1 | 0.55 | 0.68 | inactive |
| RD3 | 1 | 0.32 | 1.52 | inactive |
| NLGN1 | 1 | 0.56 | 0.84 | inactive |
| PTPRF | 1 | 0.33 | 1.73 | inactive |
| NPR3 | 1 | 0.95 | 0.66 | inactive |
| NPR3 | 2 | 0.51 | 0.94 | inactive |
| ZNF770 | 1 | -0.06 | 1.54 | inactive |
| TMEM150C | 1 | 0.96 | 0.56 | inactive |
| TSBP1 | 1 | 0.21 | 0.94 | inactive |
| PINK1 | 1 | 0.68 | 0.39 | inactive |
| MCM6 | 1 | 0.74 | 0.86 | inactive |
| NALCN | 1 | 1.04 | 0.44 | inactive |
| NKAIN4 | 1 | 0.6 | 0.68 | inactive |
| PPARGC1A | 1 | 0.38 | 1.69 | inactive |
| TAS2R7 | 1 | 0.58 | 2.27 | inactive |
| METTL2B | 1 | 0.72 | 0.86 | inactive |
| SORBS1 | 1 | 0.36 | 1.19 | inactive |
| EIF4G1 | 1 | 0 | 2.14 | inactive |
| RTCA | 1 | 0.6 | 1.05 | inactive |
| GRSF1 | 1 | 0.18 | 1.99 | inactive |
| WASHC2C | 1 | 0.8 | 0.32 | active |
| SRPK1 | 1 | 0.67 | 1.1 | inactive |
| POP1 | 1 | 0.45 | 1.86 | inactive |
| LINC02914 | 1 | 0.16 | 1.69 | inactive |
| CD24 | 1 | -0.02 | 1.8 | inactive |
| PLPBP | 1 | 0.62 | 1.74 | inactive |
| UXT | 1 | 0.99 | 0.88 | inactive |
| CKAP2 | 1 | 1.1 | 0.94 | inactive |
| TTC6 | 1 | 0.82 | 1.08 | inactive |
| MT1H | 1 | 0.51 | 1.48 | inactive |
| ATP2A2 | 1 | 0.86 | 0.78 | inactive |
| STOML3 | 1 | 0.73 | 1.15 | inactive |
| C2orf76 | 1 | 0.71 | 1.68 | inactive |
| ZNF557 | 1 | 0.6 | 1.1 | inactive |
| TIMD4 | 1 | 1.03 | 0.4 | inactive |
| FOSL1 | 1 | 1.03 | 0.88 | inactive |
| CCDC30 | 1 | 1.16 | 0.95 | inactive |
| FXYD1 | 1 | 0.12 | 1.72 | inactive |
| SLC2A3 | 1 | 0.63 | 0.32 | inactive |
| NSUN7 | 1 | 0.82 | 0.46 | inactive |
| NPAP1 | 1 | 0.47 | 0.85 | inactive |
| TNFRSF10D | 1 | 0.46 | 0.19 | active |
| TMCC2 | 1 | 0.94 | 1.04 | inactive |
| RSRP1 | 1 | 0.39 | 2.23 | inactive |
| PDAP1 | 1 | 0.4 | 2.26 | inactive |
| HSD17B3 | 1 | 0.9 | 0.98 | inactive |
| ELAPOR2 | 1 | 0.74 | 0.74 | inactive |
| GSE1 | 1 | 0.77 | 1.27 | inactive |
| NADSYN1 | 1 | 0.69 | 0.6 | inactive |
| NTHL1 | 1 | 0.36 | 2.34 | inactive |
| SYPL1 | 1 | 0.88 | 0.64 | inactive |
| ZMYND8 | 1 | 0.31 | 0.74 | inactive |
| CAV1 | 1 | 1.1 | 0.74 | inactive |
| BCL6B | 1 | 0.51 | 1.1 | inactive |
| DCAF10 | 1 | 0.47 | 1.01 | inactive |
| NOVA1 | 1 | 0.67 | 0.96 | inactive |
| UBE2E3 | 1 | 0.3 | 2.07 | inactive |
| FAM86B1 | 1 | 0.18 | 1.87 | inactive |
| SP2 | 1 | 0.49 | 1.51 | inactive |
| BCL2L1 | 1 | 0.79 | 1.75 | inactive |
| ZNF512 | 1 | 0.64 | 1.05 | inactive |
| CTSB | 1 | 0.22 | 1.18 | inactive |
| GGH | 1 | 0.9 | 0.56 | inactive |
| WDR19 | 1 | 0.55 | 1.47 | inactive |
| OR2T33 | 1 | 0.39 | 0.27 | inactive |
| RO60 | 1 | 0.82 | 0.41 | inactive |
| DHCR7 | 1 | 0.36 | 1.29 | inactive |
| ZNF593 | 1 | 0.62 | 0.8 | inactive |
| ATP1B2 | 1 | 0.93 | 0.82 | inactive |
| CTRL | 1 | 0.55 | 1.12 | inactive |
| CORT | 1 | 0.17 | -0.09 | active |
| SFXN2 | 1 | 0.21 | 0.91 | inactive |
| RASSF9 | 1 | 0.76 | 0.3 | inactive |
| AP1S1 | 1 | 0.69 | 1.27 | inactive |
| FANCL | 1 | 0.9 | 1.27 | inactive |
| ZNHIT2 | 1 | 0.61 | 1.09 | inactive |
| XK | 1 | 1.13 | 0.62 | inactive |
| SAMD4B | 1 | 0.17 | 0.72 | inactive |
| TRIM77 | 1 | 0.26 | 1.36 | inactive |
| IRX6 | 1 | 0.7 | 0.84 | inactive |
| OR2L3 | 1 | 0.59 | 1.1 | inactive |
